Reference: the supplement of paper PMC10849652
Some of the results follow.

Amino acid sequences for entries named in this document (tags omitted). A change or cut given only in a name is not applied to a line headed by its entry.
UniProt Q9Y287, whole entry, looked up: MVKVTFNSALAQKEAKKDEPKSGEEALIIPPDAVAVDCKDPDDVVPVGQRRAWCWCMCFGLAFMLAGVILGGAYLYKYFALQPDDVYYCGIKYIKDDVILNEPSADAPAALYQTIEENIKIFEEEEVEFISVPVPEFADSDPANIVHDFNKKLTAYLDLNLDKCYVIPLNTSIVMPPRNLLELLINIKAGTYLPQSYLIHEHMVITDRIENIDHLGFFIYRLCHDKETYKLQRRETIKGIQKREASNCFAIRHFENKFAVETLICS
UniProt P14316: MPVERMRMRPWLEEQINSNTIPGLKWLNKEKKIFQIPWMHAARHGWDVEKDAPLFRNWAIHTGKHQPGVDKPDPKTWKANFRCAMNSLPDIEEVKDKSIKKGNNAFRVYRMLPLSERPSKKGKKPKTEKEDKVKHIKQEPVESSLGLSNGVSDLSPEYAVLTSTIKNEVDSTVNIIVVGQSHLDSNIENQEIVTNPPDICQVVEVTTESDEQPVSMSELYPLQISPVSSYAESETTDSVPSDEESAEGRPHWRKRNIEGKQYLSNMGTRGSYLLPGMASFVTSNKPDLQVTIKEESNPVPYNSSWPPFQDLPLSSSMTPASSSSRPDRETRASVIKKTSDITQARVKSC
UniProt P53990, whole entry, looked up: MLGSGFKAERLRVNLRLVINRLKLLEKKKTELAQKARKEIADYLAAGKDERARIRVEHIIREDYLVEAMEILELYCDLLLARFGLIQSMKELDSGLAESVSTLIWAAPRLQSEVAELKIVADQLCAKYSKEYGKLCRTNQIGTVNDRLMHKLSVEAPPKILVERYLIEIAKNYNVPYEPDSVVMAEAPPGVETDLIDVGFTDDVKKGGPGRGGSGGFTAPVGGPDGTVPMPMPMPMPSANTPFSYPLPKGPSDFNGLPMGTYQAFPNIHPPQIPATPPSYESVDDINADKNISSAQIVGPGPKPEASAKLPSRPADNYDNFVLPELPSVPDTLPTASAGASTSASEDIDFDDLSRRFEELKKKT
UniProt Q8NAX2: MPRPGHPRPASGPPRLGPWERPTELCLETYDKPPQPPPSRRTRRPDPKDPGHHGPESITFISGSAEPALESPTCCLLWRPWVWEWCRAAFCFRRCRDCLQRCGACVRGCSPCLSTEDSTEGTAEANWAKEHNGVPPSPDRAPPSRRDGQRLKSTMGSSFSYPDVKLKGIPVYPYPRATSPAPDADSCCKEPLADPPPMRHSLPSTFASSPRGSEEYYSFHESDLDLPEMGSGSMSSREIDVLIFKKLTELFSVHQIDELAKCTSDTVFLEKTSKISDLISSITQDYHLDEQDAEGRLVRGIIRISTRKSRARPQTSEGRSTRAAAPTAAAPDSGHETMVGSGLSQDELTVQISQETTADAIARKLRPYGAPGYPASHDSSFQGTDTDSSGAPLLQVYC
UniProt Q7LBC6: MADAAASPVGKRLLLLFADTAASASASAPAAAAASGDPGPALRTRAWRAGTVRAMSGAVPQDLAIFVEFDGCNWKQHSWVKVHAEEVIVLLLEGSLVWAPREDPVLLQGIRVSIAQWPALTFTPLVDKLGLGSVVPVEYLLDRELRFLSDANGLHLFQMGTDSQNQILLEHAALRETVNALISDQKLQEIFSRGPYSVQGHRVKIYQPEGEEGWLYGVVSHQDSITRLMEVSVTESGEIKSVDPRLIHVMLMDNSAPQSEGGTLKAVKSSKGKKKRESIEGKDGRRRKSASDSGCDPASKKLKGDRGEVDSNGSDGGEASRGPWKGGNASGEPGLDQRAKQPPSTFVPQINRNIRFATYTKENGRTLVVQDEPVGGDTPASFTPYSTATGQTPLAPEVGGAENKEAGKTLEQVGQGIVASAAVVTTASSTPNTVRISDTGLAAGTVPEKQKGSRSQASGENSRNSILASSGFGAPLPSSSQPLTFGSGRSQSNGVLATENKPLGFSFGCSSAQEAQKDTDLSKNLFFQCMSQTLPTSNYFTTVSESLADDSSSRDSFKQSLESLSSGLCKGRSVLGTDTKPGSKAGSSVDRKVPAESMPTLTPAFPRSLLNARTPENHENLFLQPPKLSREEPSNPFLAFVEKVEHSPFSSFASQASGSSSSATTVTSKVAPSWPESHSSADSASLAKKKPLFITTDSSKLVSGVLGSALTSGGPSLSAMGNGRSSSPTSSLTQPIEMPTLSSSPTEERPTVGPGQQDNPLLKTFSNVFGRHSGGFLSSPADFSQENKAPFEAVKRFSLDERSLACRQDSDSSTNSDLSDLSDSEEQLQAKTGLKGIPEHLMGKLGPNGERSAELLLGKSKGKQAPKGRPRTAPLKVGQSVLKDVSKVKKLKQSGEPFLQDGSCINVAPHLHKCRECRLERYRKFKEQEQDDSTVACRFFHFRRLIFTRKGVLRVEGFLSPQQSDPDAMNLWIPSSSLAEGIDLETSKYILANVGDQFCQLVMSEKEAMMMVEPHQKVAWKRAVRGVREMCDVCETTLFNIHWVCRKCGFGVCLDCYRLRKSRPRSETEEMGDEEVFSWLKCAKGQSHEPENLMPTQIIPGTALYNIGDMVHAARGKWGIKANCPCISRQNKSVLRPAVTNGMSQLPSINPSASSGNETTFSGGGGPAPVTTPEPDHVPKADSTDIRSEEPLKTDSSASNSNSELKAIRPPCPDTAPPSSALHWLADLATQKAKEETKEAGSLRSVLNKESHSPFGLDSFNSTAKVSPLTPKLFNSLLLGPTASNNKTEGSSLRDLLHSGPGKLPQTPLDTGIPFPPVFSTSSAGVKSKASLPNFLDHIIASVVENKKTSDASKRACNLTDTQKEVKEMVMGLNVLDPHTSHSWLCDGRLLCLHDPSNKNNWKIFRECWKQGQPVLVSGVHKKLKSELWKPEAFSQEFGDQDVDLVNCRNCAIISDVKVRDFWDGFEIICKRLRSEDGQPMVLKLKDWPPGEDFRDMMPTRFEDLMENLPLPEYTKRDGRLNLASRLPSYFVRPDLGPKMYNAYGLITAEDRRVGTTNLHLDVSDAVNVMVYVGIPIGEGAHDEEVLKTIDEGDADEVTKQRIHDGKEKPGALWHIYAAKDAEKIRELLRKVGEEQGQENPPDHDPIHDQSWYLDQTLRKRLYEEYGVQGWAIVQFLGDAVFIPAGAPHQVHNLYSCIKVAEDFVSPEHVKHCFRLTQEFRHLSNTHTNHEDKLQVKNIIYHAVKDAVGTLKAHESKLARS
UniProt Q9UL03, whole entry, looked up: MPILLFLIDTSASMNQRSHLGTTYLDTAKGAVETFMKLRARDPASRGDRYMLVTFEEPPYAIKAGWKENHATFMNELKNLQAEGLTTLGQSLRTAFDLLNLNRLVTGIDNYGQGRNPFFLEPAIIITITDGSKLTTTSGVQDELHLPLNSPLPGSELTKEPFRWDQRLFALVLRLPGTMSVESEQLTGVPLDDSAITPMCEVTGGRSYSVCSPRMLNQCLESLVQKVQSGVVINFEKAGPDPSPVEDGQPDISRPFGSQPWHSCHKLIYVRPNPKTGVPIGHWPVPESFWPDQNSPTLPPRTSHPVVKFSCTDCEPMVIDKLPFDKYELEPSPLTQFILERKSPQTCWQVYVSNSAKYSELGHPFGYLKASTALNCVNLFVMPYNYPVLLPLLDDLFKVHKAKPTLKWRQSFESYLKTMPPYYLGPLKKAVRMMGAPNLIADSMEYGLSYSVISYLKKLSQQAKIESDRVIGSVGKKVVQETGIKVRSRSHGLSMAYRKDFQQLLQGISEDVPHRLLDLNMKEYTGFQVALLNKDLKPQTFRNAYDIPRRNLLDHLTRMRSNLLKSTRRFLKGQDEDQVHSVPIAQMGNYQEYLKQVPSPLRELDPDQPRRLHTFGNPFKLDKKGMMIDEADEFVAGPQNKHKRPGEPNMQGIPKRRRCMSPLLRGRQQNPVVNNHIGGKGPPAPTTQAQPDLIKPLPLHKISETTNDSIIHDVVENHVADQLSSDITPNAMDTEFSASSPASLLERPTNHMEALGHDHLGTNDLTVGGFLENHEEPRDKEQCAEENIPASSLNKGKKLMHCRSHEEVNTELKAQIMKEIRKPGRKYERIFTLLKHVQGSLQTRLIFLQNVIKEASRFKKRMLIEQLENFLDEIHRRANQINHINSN
UniProt O43731: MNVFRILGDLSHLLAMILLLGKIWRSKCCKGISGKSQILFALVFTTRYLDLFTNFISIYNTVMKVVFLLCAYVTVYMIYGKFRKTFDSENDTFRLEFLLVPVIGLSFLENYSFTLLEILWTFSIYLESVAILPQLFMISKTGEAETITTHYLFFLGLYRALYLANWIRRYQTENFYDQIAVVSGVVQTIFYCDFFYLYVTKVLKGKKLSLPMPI
UniProt Q96SI1: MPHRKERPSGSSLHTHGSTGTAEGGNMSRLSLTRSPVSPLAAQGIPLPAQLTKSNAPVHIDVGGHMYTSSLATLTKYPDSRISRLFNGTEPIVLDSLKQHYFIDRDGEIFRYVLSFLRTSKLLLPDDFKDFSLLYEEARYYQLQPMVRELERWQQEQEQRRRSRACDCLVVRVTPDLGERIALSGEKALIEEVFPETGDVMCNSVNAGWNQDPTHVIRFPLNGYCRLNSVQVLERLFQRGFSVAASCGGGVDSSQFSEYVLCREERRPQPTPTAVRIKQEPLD
UniProt Q9NZM3: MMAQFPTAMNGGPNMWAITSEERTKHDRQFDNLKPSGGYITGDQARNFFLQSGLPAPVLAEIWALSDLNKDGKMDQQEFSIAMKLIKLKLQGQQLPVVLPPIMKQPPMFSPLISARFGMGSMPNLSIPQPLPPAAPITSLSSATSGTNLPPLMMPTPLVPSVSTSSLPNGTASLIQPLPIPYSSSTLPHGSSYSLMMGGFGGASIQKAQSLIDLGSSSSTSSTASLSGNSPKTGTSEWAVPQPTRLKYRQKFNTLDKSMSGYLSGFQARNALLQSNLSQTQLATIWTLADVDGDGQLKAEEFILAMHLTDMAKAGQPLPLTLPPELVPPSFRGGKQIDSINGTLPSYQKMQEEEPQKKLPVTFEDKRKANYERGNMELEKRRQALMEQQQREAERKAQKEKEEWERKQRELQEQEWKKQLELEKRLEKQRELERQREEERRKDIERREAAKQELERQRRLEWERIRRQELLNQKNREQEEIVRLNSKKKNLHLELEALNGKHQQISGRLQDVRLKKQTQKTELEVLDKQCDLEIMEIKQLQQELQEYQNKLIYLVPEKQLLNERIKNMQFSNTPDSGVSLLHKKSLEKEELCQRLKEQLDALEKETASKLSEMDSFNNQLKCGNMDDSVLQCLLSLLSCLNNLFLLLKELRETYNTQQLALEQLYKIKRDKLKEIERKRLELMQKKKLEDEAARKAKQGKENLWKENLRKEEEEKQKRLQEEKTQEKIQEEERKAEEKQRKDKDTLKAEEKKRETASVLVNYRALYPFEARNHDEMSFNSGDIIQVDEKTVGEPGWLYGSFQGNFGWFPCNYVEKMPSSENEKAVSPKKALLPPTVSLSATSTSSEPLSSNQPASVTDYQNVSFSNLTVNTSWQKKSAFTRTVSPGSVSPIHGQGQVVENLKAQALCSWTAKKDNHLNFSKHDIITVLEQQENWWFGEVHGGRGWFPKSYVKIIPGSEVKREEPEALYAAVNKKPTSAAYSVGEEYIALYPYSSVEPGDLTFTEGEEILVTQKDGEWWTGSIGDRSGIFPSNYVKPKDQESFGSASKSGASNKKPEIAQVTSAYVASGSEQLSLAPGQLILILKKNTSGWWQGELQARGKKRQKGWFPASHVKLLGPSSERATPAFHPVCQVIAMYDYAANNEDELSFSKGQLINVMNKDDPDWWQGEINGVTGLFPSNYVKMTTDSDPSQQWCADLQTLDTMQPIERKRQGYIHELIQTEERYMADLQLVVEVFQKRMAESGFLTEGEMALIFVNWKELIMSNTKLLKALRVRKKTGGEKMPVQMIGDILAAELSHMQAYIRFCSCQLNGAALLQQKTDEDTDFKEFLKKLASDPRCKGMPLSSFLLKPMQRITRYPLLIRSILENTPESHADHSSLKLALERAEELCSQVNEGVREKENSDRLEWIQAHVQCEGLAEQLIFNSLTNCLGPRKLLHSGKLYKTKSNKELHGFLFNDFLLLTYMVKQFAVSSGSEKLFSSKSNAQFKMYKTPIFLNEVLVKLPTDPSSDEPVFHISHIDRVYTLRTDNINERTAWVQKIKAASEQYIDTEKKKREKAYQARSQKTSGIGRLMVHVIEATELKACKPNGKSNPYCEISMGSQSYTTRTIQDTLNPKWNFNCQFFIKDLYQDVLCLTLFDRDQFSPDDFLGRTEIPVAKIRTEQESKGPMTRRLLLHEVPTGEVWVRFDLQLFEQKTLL
UniProt Q9H9L3: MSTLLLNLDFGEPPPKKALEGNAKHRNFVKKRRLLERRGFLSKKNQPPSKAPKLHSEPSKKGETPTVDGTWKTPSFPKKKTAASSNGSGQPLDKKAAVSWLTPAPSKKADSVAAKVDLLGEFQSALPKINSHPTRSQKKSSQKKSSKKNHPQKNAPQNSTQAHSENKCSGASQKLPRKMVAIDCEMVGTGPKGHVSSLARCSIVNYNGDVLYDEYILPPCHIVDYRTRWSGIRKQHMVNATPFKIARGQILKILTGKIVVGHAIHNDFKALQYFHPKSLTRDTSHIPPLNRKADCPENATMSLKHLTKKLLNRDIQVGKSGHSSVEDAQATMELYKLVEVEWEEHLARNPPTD

Legend:
Test in all cases: log2 fold change, soluble protein after heating vs DMSO (PISA); higher = thermal stabilisation; K562 lysate, 10 uM; active = over 0.2 and 3.5 SD of the protein, either way, in both replicates (recomputed)
erlotinib = compound: C#Cc1cccc(Nc2ncnc3cc(OCCOC)c(OCCOC)cc23)c1 [erlotinib]
Procedure, shortened: (§1)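 Soluble protein was defined as the supernatant remaining after 21,000xg for 90 min, following pooling of heated aliquots and adjustment to 0.5% NP-40 at 4°C. Before that, crude K562 extract at 1 mg/mL protein in PBS pH 7.4 with 1 mM MgCl2 was treated with 10 μM compound for 30 min and heated for 3 min across 48°C-58°C. Quantification used TMTpro 16plex LC-MS/MS with channel sums equalised, and values are log-two fold changes in thermal stability relative to solvent controls from duplicates.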

[1] = compound: C/C(=N\NC(=O)C1=CC(=CC=C1)S(=O)(=O)N2CCOCC2)/C3=C(C=CC(=C3)Cl)O
Procedure, shortened: as §1

[2] = compound: C1=CC(=CC=C1C2=NC3=C(N2)C=C(C=C3)C(=O)N)OC4=CC=C(C=C4)Cl
Procedure, shortened: as §1

[3] = compound: C1=CC2=C(C=CC(=C2)/C=C\3/C(=O)NC(=NCC4=CC=CS4)S3)N=C1
Procedure, shortened: as §1

[4] = compound: C1=CC2=NC=CN=C2C=C1/C=C/3\C(=O)NC(=O)S3
Procedure, shortened: as §1

[5] = compound: C1=CC=C(C=C1)C2=NC(=C(N2)C3=CC=NC=C3)C4=CC(=C(C=C4)Cl)O
Procedure, shortened: as §1

[6] = compound: C1=CC=C2C(=C1)C3=NNC4=CC=CC(=C43)C2=O
Procedure, shortened: as §1

IRAK-1-4 Inhibitor I = compound: C1COCCN1CCN2C3=CC=CC=C3N=C2NC(=O)C4=CC(=CC=C4)[N+](=O)[O-] [IRAK-1-4 Inhibitor I]
Procedure, shortened: as §1

[7] = compound: C1CCN(C1)C(=O)NC2=CC=CC(=C2)NC3=NC=C(C(=N3)NCCC4=CN=CN4)Br
Procedure, shortened: as §1

[8] = compound: C1CN(CCC1(CC2=CC=C(C=C2)Cl)N)C3=NC=NC4=C3C=CN4
Procedure, shortened: as §1

Measured: log2 fold change

ITM2B (UniProt Q9Y287)
inactive: erlotinib -0.039 | [1] 0.225 | [2] 0.02 | [3] -0.202 | [4] 0.026 | [5] 0.005 | [6] 0.052 | IRAK-1-4 Inhibitor I 0.023

IREB2 (UniProt P48200)
inactive: erlotinib -0.006 | [1] -0.003 | [2] -0.001 | [3] 0.012 | [4] -0.02 | [5] -0.02 | [6] 0.021 | [7] -0.003 | [8] 0.005 | IRAK-1-4 Inhibitor I 0.013

IRF2 (UniProt P14316)
inactive: erlotinib -0.06 | [1] -0.218 | [2] 0.048 | [3] -0.035 | [4] -0.047 | [5] 0.017 | [6] 0.046 | [7] -0.002 | [8] 0.012 | IRAK-1-4 Inhibitor I -0.021

IST1 isoform 2 (UniProt P53990)
inactive: erlotinib -0.024 | [1] -0.455 | [2] -0.059 | [3] -0.055 | [5] 0.049 | [6] 0.07 | [7] 0.035 | [8] -0.164 | IRAK-1-4 Inhibitor I 0.022

ISCA1 isoform 2 (UniProt Q9BUE6)
inactive: erlotinib -0.025 | [1] -0.036 | [2] 0.021 | [3] -0.007 | [4] -0.04 | [5] -0.033 | [6] -0.013 | [7] 0.003 | [8] -0.031 | IRAK-1-4 Inhibitor I 0.031

Quoted from the entries so far (2 entries):
IST1 isoform 2 (UniProt P53990)
inactive: erlotinib -0.024 | [1] -0.455 | [2] -0.059 | [3] -0.055 | [5] 0.049 | [6] 0.07 | [7] 0.035 | [8] -0.164 | IRAK-1-4 Inhibitor I 0.022

ISCA1 isoform 2 (UniProt Q9BUE6)
inactive: erlotinib -0.025 | [1] -0.036 | [2] 0.021 | [3] -0.007 | [4] -0.04 | [5] -0.033 | [6] -0.013 | [7] 0.003 | [8] -0.031 | IRAK-1-4 Inhibitor I 0.031

Next part.

KATNA1 (UniProt O75449)
inactive: erlotinib 0.011 | [1] 0.033 | [2] -0.021 | [3] -0.06 | [4] -0.044 | [5] 0.034 | [6] -0.045 | [7] 0.004 | [8] 0.01 | IRAK-1-4 Inhibitor I 0.023

KDF1 (UniProt Q8NAX2)
inactive: erlotinib -0.024 | [1] -0.039 | [2] 0.032 | [3] 0.104 | [4] -0.049 | [6] -0.036

KDM3B (UniProt Q7LBC6)
inactive: erlotinib 0.014 | [1] -0.05 | [2] 0.011 | [3] 0.024 | [4] -0.032 | [5] -0.006 | [6] -0.012 | [7] -0.012 | [8] 0.003 | IRAK-1-4 Inhibitor I 0.027

IQGAP2 (UniProt Q13576)
inactive: erlotinib -0.004 | [1] 0.009 | [2] -0.036 | [3] 0.028 | [4] 0.012 | [5] 0.015 | [6] -0.056 | [7] -0.008 | [8] 0.005 | IRAK-1-4 Inhibitor I 0.01

INTS7 (UniProt Q9NVH2)
active: [4] 0.441
inactive: erlotinib 0.076 | [1] -0.183 | [2] -0.01 | [3] 0.041 | [5] -0.044 | [6] 0.026 | [7] -0.019 | [8] 0.035 | IRAK-1-4 Inhibitor I 0

INTS6 (UniProt Q9UL03)
inactive: erlotinib -0.153 | [1] 0.01 | [2] -0.224 | [3] -0.032 | [4] -0.165 | [6] -0.125 | [7] 0.119 | [8] -0.071

KDELR3 (UniProt O43731)
inactive: erlotinib -0.033 | [1] 0.151 | [2] -0.353 | [3] -0.185 | [5] -0.014 | [6] 0.258 | [7] 0.018 | [8] -0.036 | IRAK-1-4 Inhibitor I -0.061

IQCB1 (UniProt Q15051)
inactive: erlotinib 0.278 | [1] -0.129 | [2] 0.025 | [3] -0.077 | [4] -0.052 | [6] 0.059 | [7] 0.019 | [8] -0.027

JAK2 (UniProt O60674)
inactive: erlotinib -0.054 | [1] -0.043 | [2] -0.058 | [3] 0.117 | [5] -0.069 | [6] 0.105 | IRAK-1-4 Inhibitor I 0.048

KCTD10 (UniProt Q9H3F6)
inactive: erlotinib 0.027 | [1] 0.016 | [2] 0.059 | [3] -0.019 | [4] -0.09 | [5] 0.012 | [6] 0.023 | [7] -0.018 | [8] 0.052 | IRAK-1-4 Inhibitor I -0.004

KCNK1 (UniProt O00180)
inactive: erlotinib 0.024 | [1] 0.109 | [2] -0.049 | [3] -0.246 | [4] -0.161 | [6] -0.091 | [7] 0.005 | [8] 0.011

KATNB1 (UniProt Q9BVA0)
inactive: erlotinib 0.096 | [1] 0.006 | [2] 0.052 | [3] 0.018 | [4] -0.006 | [5] -0.002 | [6] -0.053 | [7] 0.02 | [8] -0.055 | IRAK-1-4 Inhibitor I 0.009

IQSEC2 (UniProt Q5JU85)
inactive: erlotinib 0.065 | [1] -0.049 | [2] -0.015 | [3] 0.006 | [4] 0 | [5] 0.001 | [6] -0.027 | [7] -0.127 | [8] 0.081 | IRAK-1-4 Inhibitor I -0.031

KCTD7 (UniProt Q96MP8)
inactive: erlotinib 0.153 | [1] 0.29 | [2] -0.026 | [3] 0.021 | [5] -0.156 | [6] 0.107 | [7] -0.074 | [8] 0.023 | IRAK-1-4 Inhibitor I -0.151

KATNBL1 (UniProt Q9H079)
inactive: erlotinib -0.012 | [1] 0.009 | [2] -0.02 | [3] 0.064 | [6] -0.001 | [7] 0.045
active: [8] -0.687

KCTD15 (UniProt Q96SI1)
inactive: erlotinib -0.01 | [1] -0.128 | [2] 0.01 | [3] 0.031 | [4] 0.002 | [5] -0.019 | [6] 0.047 | [7] 0.074 | [8] -0.001 | IRAK-1-4 Inhibitor I 0.014

ITSN2 (UniProt Q9NZM3)
inactive: erlotinib -0.066 | [1] 0.012 | [2] 0.04 | [3] 0.009 | [4] -0.023 | [5] -0.043 | [6] -0.007 | [7] -0.015 | [8] 0.011 | IRAK-1-4 Inhibitor I -0.037

INTS3 (UniProt Q68E01)
inactive: erlotinib 0.015 | [1] 0.035 | [2] 0.021 | [3] -0.002 | [4] -0.008 | [5] -0.043 | [6] -0.005 | [7] 0.026 | [8] -0.083 | IRAK-1-4 Inhibitor I 0.016

IRAK4 (UniProt Q9NWZ3)
active: [7] 0.3
inactive: erlotinib -0.03 | [1] -0.071 | [2] -0.037 | [3] -0.019 | [4] 0.037 | [5] 0.015 | [6] 0.223 | [8] -0.037 | IRAK-1-4 Inhibitor I 0.006

ISG20L2 (UniProt Q9H9L3)
inactive: erlotinib -0.002 | [1] -0.099 | [2] -0.03 | [3] -0.075 | [5] 0.104 | [6] 0.033 | [7] 0.015 | [8] -0.063 | IRAK-1-4 Inhibitor I 0.032
